Record: PubChem BioAssay AID1224830 (NIAID, 2016)
Test: 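Host factors that control LPS-induced TNF expression in human macrophages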 (primary screen). Cells: human THP-1 monocytic leukaemia cells, TNF dual-luciferase reporter clone, PMA-differentiated to macrophage-like cells. Reagents: siRNA pool against human genes, 50 nM. Timing: LPS for 4 h, given about 3 days after siRNA transfection. Treatment: bacterial LPS (TLR4 ligand), 10 ng/ml. Measurement: 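TNF firefly reporter luminescence divided by renilla, normalised to the plate median, then turned into a robust z-score for each replicate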. Scale: TNF reporter robust z-score: higher = stronger TNF reporter response to LPS. Hit rule: 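Each well counts as active if its z-score is over 2.8 or under -1.5; controls are left without a call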.
The deposit covers about 18,000 reagents; this is a random part of them. Over the whole deposit, about 2,900 (16%) were called active. 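Calls are made per well; low scores hint the gene aids the LPS response, high scores that it dampens it.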 Entries without a mark were called inactive. Repeated entries: four replicate wells of each siRNA pool.

| gene | TNF reporter robust z-score |
| --- | --- |
| SGCZ (GeneID 137868) | 1.15 |
| SGCZ (GeneID 137868) | 2.81 (active) |
| SGCZ (GeneID 137868) | -0.53 |
| SGCZ (GeneID 137868) | 1.52 |
| PCDH12 (GeneID 51294) | 0.03 |
| PCDH12 (GeneID 51294) | 0.2 |
| PCDH12 (GeneID 51294) | 0.45 |
| PCDH12 (GeneID 51294) | 0.21 |
| TBC1D1 (GeneID 23216) | 0.83 |
| TBC1D1 (GeneID 23216) | 1.99 |
| TBC1D1 (GeneID 23216) | 1.61 |
| TBC1D1 (GeneID 23216) | 1.91 |
| SMAD1 (GeneID 4086) | -1.54 (active) |
| SMAD1 (GeneID 4086) | -0.93 |
| SMAD1 (GeneID 4086) | -1.56 (active) |
| SMAD1 (GeneID 4086) | -1.17 |
| FOXJ1 (GeneID 2302) | -0.07 |
| FOXJ1 (GeneID 2302) | 0.84 |
| FOXJ1 (GeneID 2302) | 0.9 |
| FOXJ1 (GeneID 2302) | 2.73 |
| TCEAL1 (GeneID 9338) | -1.76 (active) |
| TCEAL1 (GeneID 9338) | -1.94 (active) |
| TCEAL1 (GeneID 9338) | -1.8 (active) |
| TCEAL1 (GeneID 9338) | -1.7 (active) |
| RASGRP2 (GeneID 10235) | 1.03 |
| RASGRP2 (GeneID 10235) | 1.34 |
| RASGRP2 (GeneID 10235) | 1.71 |
| RASGRP2 (GeneID 10235) | 2.95 (active) |
| TTC39A (GeneID 22996) | -0.61 |
| TTC39A (GeneID 22996) | -0.09 |
| TTC39A (GeneID 22996) | 0.08 |
| TTC39A (GeneID 22996) | 0.63 |
| RPL38 (GeneID 6169) | -0.31 |
| RPL38 (GeneID 6169) | -0.74 |
| RPL38 (GeneID 6169) | -0.41 |
| RPL38 (GeneID 6169) | -0.24 |
| CBLL2 (GeneID 158506) | -1.36 |
| CBLL2 (GeneID 158506) | -0.22 |
| CBLL2 (GeneID 158506) | -1.23 |
| CBLL2 (GeneID 158506) | -1.92 (active) |
| OR4F17 (GeneID 81099) | 0.4 |
| OR4F17 (GeneID 81099) | -0.85 |
| OR4F17 (GeneID 81099) | -0.29 |
| OR4F17 (GeneID 81099) | 2.59 |
| PLA2G3 (GeneID 50487) | 0.47 |
| PLA2G3 (GeneID 50487) | -0.21 |
| PLA2G3 (GeneID 50487) | 1.42 |
| PLA2G3 (GeneID 50487) | 0.54 |
| KRT14 (GeneID 3861) | -1.56 (active) |
| KRT14 (GeneID 3861) | -0.84 |
| KRT14 (GeneID 3861) | -1.08 |
| KRT14 (GeneID 3861) | -0.89 |
| CTTNBP2NL (GeneID 55917) | 0.24 |
| CTTNBP2NL (GeneID 55917) | 1.65 |
| CTTNBP2NL (GeneID 55917) | -1.48 |
| CTTNBP2NL (GeneID 55917) | -0.22 |
| CNP (GeneID 1267) | -0.95 |
| CNP (GeneID 1267) | 0.13 |
| CNP (GeneID 1267) | -0.48 |
| CNP (GeneID 1267) | -0.82 |
| TBC1D9B (GeneID 23061) | 0.1 |
| TBC1D9B (GeneID 23061) | 0.38 |
| TBC1D9B (GeneID 23061) | -0.84 |
| TBC1D9B (GeneID 23061) | 0.21 |
| SMOC1 (GeneID 64093) | 0.09 |
| SMOC1 (GeneID 64093) | -0.54 |
| SMOC1 (GeneID 64093) | -0.52 |
| SMOC1 (GeneID 64093) | -0.43 |
| TMEM255A (GeneID 55026) | -0.81 |
| TMEM255A (GeneID 55026) | 0.77 |
| TMEM255A (GeneID 55026) | 0.11 |
| TMEM255A (GeneID 55026) | -0.32 |
| AMIGO1 (GeneID 57463) | 2.28 |
| AMIGO1 (GeneID 57463) | 0.27 |
| AMIGO1 (GeneID 57463) | 0.8 |
| AMIGO1 (GeneID 57463) | 0.04 |
| PEBP4 (GeneID 157310) | 0.34 |
| PEBP4 (GeneID 157310) | 0.86 |
| PEBP4 (GeneID 157310) | 0.4 |
| PEBP4 (GeneID 157310) | 0.27 |
| NKX2-8 (GeneID 26257) | -0.37 |
| NKX2-8 (GeneID 26257) | 0.72 |
| NKX2-8 (GeneID 26257) | 0.46 |
| NKX2-8 (GeneID 26257) | 1.69 |
| ALPK1 (GeneID 80216) | -1.05 |
| ALPK1 (GeneID 80216) | -0.32 |
| ALPK1 (GeneID 80216) | -0.3 |
| ALPK1 (GeneID 80216) | 1.16 |
| SBDS (GeneID 51119) | 1.7 |
| SBDS (GeneID 51119) | 1.79 |
| SBDS (GeneID 51119) | 1.1 |
| SBDS (GeneID 51119) | 2.16 |
| SAYSD1 (GeneID 55776) | 2.98 (active) |
| SAYSD1 (GeneID 55776) | 3.31 (active) |
| SAYSD1 (GeneID 55776) | 0.64 |
| SAYSD1 (GeneID 55776) | 0.15 |
| GPR22 (GeneID 2845) | 0.34 |
| GPR22 (GeneID 2845) | 2.57 |
| GPR22 (GeneID 2845) | 0.58 |
| GPR22 (GeneID 2845) | 1.6 |
| PLIN3 (GeneID 10226) | -1.33 |
| PLIN3 (GeneID 10226) | -1.41 |
| PLIN3 (GeneID 10226) | -0.97 |
| PLIN3 (GeneID 10226) | -1.56 (active) |
| ETV3 (GeneID 2117) | 0.88 |
| ETV3 (GeneID 2117) | 1.48 |
| ETV3 (GeneID 2117) | 1.1 |
| ETV3 (GeneID 2117) | 0.85 |
| NAXE (GeneID 128240) | -0.23 |
| NAXE (GeneID 128240) | -0.25 |
| NAXE (GeneID 128240) | -0.35 |
| NAXE (GeneID 128240) | 0.2 |

Part of the list above, set out differently.
{"gene":"AMIGO1 (GeneID 57463)","TNF reporter robust z-score":0.8}
{"gene":"AMIGO1 (GeneID 57463)","TNF reporter robust z-score":0.04}
{"gene":"PEBP4 (GeneID 157310)","TNF reporter robust z-score":0.34}
{"gene":"PEBP4 (GeneID 157310)","TNF reporter robust z-score":0.86}
{"gene":"PEBP4 (GeneID 157310)","TNF reporter robust z-score":0.4}
{"gene":"PEBP4 (GeneID 157310)","TNF reporter robust z-score":0.27}
{"gene":"NKX2-8 (GeneID 26257)","TNF reporter robust z-score":-0.37}
{"gene":"NKX2-8 (GeneID 26257)","TNF reporter robust z-score":0.72}
{"gene":"NKX2-8 (GeneID 26257)","TNF reporter robust z-score":0.46}
{"gene":"NKX2-8 (GeneID 26257)","TNF reporter robust z-score":1.69}
{"gene":"ALPK1 (GeneID 80216)","TNF reporter robust z-score":-1.05}
{"gene":"ALPK1 (GeneID 80216)","TNF reporter robust z-score":-0.32}
{"gene":"ALPK1 (GeneID 80216)","TNF reporter robust z-score":-0.3}
{"gene":"ALPK1 (GeneID 80216)","TNF reporter robust z-score":1.16}
{"gene":"SBDS (GeneID 51119)","TNF reporter robust z-score":1.7}
{"gene":"SBDS (GeneID 51119)","TNF reporter robust z-score":1.79}
{"gene":"SBDS (GeneID 51119)","TNF reporter robust z-score":1.1}
{"gene":"SBDS (GeneID 51119)","TNF reporter robust z-score":2.16}
